Laboratory results from patent publication US12648899B2, “Cosmetic salts” (TARA BRANDS EUROPE S.L.U., priority 2022, dated 2026).

Test: Thiol recombination: reaction of the test compound with cysteine reagent, conversion to mono- and bis-adduct monitored by LC-MS
Settings: bis-adduct, 1 eq. compound (0.02 M) + 4 eq. N-Cbz-cysteine, phosphate buffer pH=5.4, 30° C.

NCCCOCCOCCOCCCN.O=C(O)C=CC(=O)O.O=C(O)C=CC(=O)O [Olaplex active agent]
Conversion at 30 min (30 min): 4% bis
Conversion at 60 min (60 min): 7% bis
Conversion at 5 h (5 h): 18% bis
